Assay results as given in PMC11479587.
These are yes or no findings as the source states them, for the method shown. Some results given as binding are weak or reduced against the parent protein; the word gives no strength.

By UniProt entry, the sequences of proteins in these tests, tags left out.
UniProt Q9UDY4: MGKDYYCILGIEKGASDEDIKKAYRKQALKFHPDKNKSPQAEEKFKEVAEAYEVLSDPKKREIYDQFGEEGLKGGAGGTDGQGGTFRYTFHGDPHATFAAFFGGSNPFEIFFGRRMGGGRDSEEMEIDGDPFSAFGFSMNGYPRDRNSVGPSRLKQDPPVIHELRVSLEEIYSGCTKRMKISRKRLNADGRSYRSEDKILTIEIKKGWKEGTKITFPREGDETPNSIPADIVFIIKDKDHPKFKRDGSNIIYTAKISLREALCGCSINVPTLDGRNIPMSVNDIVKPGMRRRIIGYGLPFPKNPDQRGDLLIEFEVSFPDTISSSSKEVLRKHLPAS
UniProt P11142: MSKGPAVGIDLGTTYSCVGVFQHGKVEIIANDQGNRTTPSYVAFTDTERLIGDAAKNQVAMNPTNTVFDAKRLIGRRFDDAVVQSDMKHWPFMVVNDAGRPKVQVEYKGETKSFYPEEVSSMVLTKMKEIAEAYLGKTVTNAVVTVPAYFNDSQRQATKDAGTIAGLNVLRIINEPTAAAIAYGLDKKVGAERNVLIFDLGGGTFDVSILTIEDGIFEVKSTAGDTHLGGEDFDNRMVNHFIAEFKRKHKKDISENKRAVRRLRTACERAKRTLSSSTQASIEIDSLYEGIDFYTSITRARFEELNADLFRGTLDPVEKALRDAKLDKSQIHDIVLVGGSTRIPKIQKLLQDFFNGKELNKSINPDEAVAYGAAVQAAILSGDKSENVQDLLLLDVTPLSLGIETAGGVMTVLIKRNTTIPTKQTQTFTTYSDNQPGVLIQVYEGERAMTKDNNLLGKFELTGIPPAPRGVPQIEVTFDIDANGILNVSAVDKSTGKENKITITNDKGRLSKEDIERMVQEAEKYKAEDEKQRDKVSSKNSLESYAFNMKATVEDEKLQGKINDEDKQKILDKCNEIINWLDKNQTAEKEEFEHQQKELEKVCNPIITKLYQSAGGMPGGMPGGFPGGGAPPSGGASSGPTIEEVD

Molecular target: His6-SUMO-DNAJB4 (human) (UniProt Q9UDY4)
Assay: BLI; His6-SUMO-DNAJB4 on the sensor; Hsc70 with the indicated concentrations of Hsp105; both purified

binding: binds
Substance: Hsc70 (from UniProt P11142 1-646)
